The record followed here is paper PMC3492431.

The experiment deals with T1, mouse filensin (mouse (endogenous in lens)) (UniProt A2AMT1).
T1 sequence: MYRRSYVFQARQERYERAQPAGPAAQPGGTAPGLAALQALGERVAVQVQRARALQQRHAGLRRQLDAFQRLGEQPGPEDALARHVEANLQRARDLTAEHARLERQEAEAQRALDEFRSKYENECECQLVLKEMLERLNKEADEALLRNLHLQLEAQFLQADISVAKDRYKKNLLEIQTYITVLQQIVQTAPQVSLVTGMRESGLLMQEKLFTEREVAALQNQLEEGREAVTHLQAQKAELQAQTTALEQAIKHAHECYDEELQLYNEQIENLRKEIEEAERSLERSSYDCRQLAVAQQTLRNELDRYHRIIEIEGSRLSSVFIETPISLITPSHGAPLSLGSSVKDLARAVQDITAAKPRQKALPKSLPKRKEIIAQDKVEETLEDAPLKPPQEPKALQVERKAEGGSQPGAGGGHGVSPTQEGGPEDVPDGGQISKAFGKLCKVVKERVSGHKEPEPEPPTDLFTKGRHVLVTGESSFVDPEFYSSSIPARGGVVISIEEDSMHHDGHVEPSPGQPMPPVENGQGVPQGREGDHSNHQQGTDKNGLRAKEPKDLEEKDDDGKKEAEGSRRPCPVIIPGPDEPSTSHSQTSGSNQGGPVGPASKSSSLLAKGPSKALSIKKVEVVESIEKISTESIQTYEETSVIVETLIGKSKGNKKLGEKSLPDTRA
As to the kind of experiment: far-Western, overlay or dot blot; mouse lens extracts (CP49+/+ and CP49-/-) separated by SDS-PAGE and transferred to nitrocellulose; blots incubated overnight at 4°C with 2 µg/ml purified recombinant Tmod in OverWash buffer (80 mM KCl, 2 mM MgCl2, 1 mM EGTA, 0.2% Triton X-100, 20 mM Hepes, pH 7.3) + 2% BSA; bound Tmod detected with antisera to Tmod1 or Tmod4; only the binder purified.

These are yes or no findings as the source states them, for the method shown. A result given as binding can be weak or reduced; the word gives no strength.

For the substance “purified recombinant chicken Tmod4 (tropomodulin 4)”, the binding entry is listed as “binds”.
